Data on 69 sequences can be found in PubChem BioAssay AID1347426 (Functional Genomics Laboratory (NCATS/FGL), 2020).

Out of some 31,000 sequences screened, about 1,400 (4.5%) were called active.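 How the source made its calls: active means median seed-adjusted z-score above 1 or below -1; inactive means the rest.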 The list shows a part of the results.

The nature of this assay: Novel Modifiers of Survival Motor Neuron (SMN) Protein: Gene Identification via Genome-wide siRNA Screen.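 Further: luminescence tracks full-length SMN protein made from the SMN2 reporter.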 Conditions: HEK293T SMN2-luciferase reporter, siRNA knockdown, 72 h; actives lie on both sides. In short, it runs like this: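 Luciferase signal, proportional to full-length SMN made from an SMN2 cDNA reporter in stable HEK293T cells, was read 72 h after siRNA reverse transfection. Values were expressed as MAD scores after non-targeting-control normalization and log10 conversion; seed analysis flagged off-targets.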
Take GGCACAACAAAACUCGAAATT against SERPINB5: the median seed-adjusted z-score was inactive: -0.0181.
Consider GCAUAUCCCACUCCACUAATT against CGA, for which the median seed-adjusted z-score is inactive: 0.0904.
In the case of GUUGUUCCUUUGUAUCCAATT against DHX32 it was inactive: -0.12; in that of GGAAGAUGCACUGACUAGATT against DNAJC1, inactive: 0.134.
As for CGAUCUUUCCGGUCUGAUATT against DAB2IP, the figure is inactive: 0.505.
For CAGCUCAACGAGUUGGAGATT against OTP, the median seed-adjusted z-score was inactive: 0.00717.
With CUAUGGACAUGUCAAUUGUTT against CCNA2, the median seed-adjusted z-score is inactive: 0.136.
In the case of GGAUGAGCAGUACCAGGCATT against PYCARD it was inactive: 0.117.
In the case of GCUCUAAUCUUAGUAAACATT against ZIM2 it was inactive: -0.565; in that of GAAAAACGAUGUAAGCAAUTT against ADH1A, inactive: 0.624; in that of CAGACGACACUGUCAAAAATT against CES1, inactive: -0.536.
On to GGUCACAUCUUAUAGGGCATT against ZNF449, for which the median seed-adjusted z-score is inactive: 0.178.
As for GGCUUAGGAUGGAGACCUATT against TGDS, the figure is inactive: -0.196; as for GAACAUCAGAAGUCACAGATT against TRDN, inactive: 0.195; as for GAAGAUCAAUGGUAUGGUUTT against NCK1, inactive: -0.0795.
As for GCCUCGUUCUUCGCCUUCATT against MALL, the figure is inactive: -0.477.
As for CCUCUAACAUUGGUUCCAATT against XPNPEP1, the figure is active: -1.5.
For the sequence CCAUCGUGUUACUUAGCAATT against ZNF280A, the median seed-adjusted z-score is inactive: -0.207.
In the case of GGAAGGCUAUGGAACUAGATT against ARID1B it was inactive: 0.108.
In the case of AGGAAAAGCUGGAACGGGUTT against DPP3 it was inactive: -0.261; in that of GCCUAGAAGUGGAACGUGUTT against IFT57, active: -1.1.
As for GCAGCUACGUCACACACGATT against DYNLL2, the figure is inactive: -0.201; as for CCUGGUUAUUGAGAAAGCATT against CAPN11, inactive: -0.273.
As for GGCUAUUCUUCUGUUAUUATT against KISS1R, the median seed-adjusted z-score is inactive: -0.299.
In the case of GCCUAACUAUGGGACAGCUTT against GABARAPL2, the median seed-adjusted z-score was inactive: 0.528.
In the case of GCUGGAUUCCUAUAUACCATT against SGPP1 it was inactive: 0.0859; in that of GGUAUUAUCGGGAACCAUUTT against GPR161, inactive: -0.138.
As for GGUUGAUGCUAAUAGCUCUTT against SRCAP, the figure is inactive: -0.42.
In the case of GAGAGGCUCAGAUAAAGUGTT against VSX1 it was inactive: -0.91; in that of GCAUCUCUGAGAAGAUCUATT against P11, inactive: 0.14.
Consider CGACUGAUUACAUACCGGUTT against TRIM24, for which the median seed-adjusted z-score is inactive: -0.22.
As for GCAUCAUCCGGAAGCCAGATT against SPDEF, the figure is inactive: -0.607; as for GACUCAUAUGGACCAGUUATT against ZNF460, inactive: -0.302; as for GCUCAACUUUCACCAAUAATT against SLC5A7, inactive: 0.624.
Regarding GGAAUACUCAGAUCGGGAATT against MAP3K3, the median seed-adjusted z-score is inactive: -0.182.
As for CGGAAAUGAUCAUAACCAATT against TBX5, the figure is inactive: 0.143; as for GCAGUAGAAGUAUUUCGUUTT against AGXT2, inactive: 0.17.
As for GGAGAACGGUUUCUUAUAATT against POLN, the figure is inactive: -0.129; as for GGAAAGUGAUGUCAGAAUATT against KRT7, inactive: 0; as for GGAGUACCUGCAUAACUAUTT against MAST3, inactive: -0.642.
In the case of GUCUCAGACUUGAUCCGCATT against MSH5, the median seed-adjusted z-score was inactive: -0.444.
As for GCUGGUUUGUUACGCCUUUTT against SLC4A10, the figure is inactive: 0.026; as for GGUUUGUGCUUCAACCCAATT against SYTL5, inactive: 0.192.
GCCUGGGUCAAAUACAGUATT against KLHL20: the median seed-adjusted z-score was inactive: -0.0828.
In the case of GCAUCGUGGAGCACUCAUATT against APOL3 it was inactive: -0.0761; in that of CGGUAAUAGCAAUUCAGCATT against HEATR6, inactive: 0; in that of GCUCCCUGCUCAAGACCUATT against TST, inactive: 0.
In the case of AGCGUGAGAUGGAGCGAAATT against CENTB5 it was inactive: 0.183; in that of GCAUCGAUCAAUUAUUGGATT against IL7, inactive: 0.253; in that of GGAUGACGGUGUCAUUGGUTT against CLCN4, inactive: 0.
In the case of CGAGUGUCUUCACUACAAATT against IL3RA it was inactive: -0.951; in that of AGUACAUGUUGGUGCGCUATT against CHST1, inactive: 0.181; in that of CAGAGUUUAUUGAUCCUUUTT against ELL2, inactive: 0.459.
In the case of CGAAUAUACCAGGACGAAATT against SATB1, the median seed-adjusted z-score is inactive: 0.
As for CCAGAACUCGGCUUGAAGATT against NPY, the figure is inactive: -0.0606.
In the case of CUGGUUCAGUGGAGACAGATT against RNF175 it was inactive: 0.127.
In the case of GGUUUUCUCGAAUCCAUGATT against MMP2 it was inactive: 0.0467; in that of CGCUGAUACUGACUACAGUTT against CNGA4, inactive: 0.125.
Regarding GUAGAACUGUUACCAUUAATT against POLK, the median seed-adjusted z-score was inactive: -0.102.
As for GCAAUAAUCUGCAAGUUUUTT against TBX19, the figure is inactive: 0.327; as for AGAUGGAGUUCAUCGACAATT against SRF, inactive: -0.393.
Regarding GUUCAAAAGAGGCUAAAGATT against DACH1, the median seed-adjusted z-score was inactive: 0.562.
In the case of GGUUCAUCUAAGAACAAGATT against PKNOX1 it was inactive: 0.68; in that of AGACCAUCGAAGAUUUCCATT against KRT36, inactive: 0.766; in that of CAGAGAUCUUGGAUCGCUATT against PCDH15, inactive: -0.712.
Regarding CGUACGCUACUUUCUCUUUTT against GPRC5D, the median seed-adjusted z-score was inactive: -0.038.
As for AGUCAAGAACAAUACCCAATT against SNRPD2, the figure is inactive: -0.849; as for GGAACAAGUAUUUAGGAAATT against CAPSL, inactive: -0.168; as for GGACACCAGCGAAAACGAATT against KIF5A, inactive: -0.348.
